# Measured values: PubChem BioAssay AID2517 (National Center for Advancing Translational Sciences (NCATS), 2010)
# Protein sequences, listed by entry. Tags and fused reporters are not part of them.
# UniProt P27695, whole entry, looked up: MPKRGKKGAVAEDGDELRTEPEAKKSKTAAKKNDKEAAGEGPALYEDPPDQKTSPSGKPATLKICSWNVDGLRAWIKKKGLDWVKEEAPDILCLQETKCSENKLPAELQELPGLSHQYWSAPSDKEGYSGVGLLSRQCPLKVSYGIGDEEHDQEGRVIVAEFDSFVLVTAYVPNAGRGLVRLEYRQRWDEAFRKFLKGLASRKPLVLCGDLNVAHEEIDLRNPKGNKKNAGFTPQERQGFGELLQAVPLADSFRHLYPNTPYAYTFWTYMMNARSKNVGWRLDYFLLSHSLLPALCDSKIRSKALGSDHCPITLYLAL
# The whole screen tested about 350,000 compounds, of which about 1,200 (0.34%) were called active. Inconclusive means that the source gave no clear call. Such entries were picked first, then a sample of the others. The call rests on the fitted dose curve; in most records, active means well fitted inhibition curve with a large enough effect; inconclusive means small, poorly fitted or top-dose-only effect; inactive means no such curve, though single readings can be large or run the other way. Potencies beside an inconclusive call are fits to weak or partial responses and may not hold up.
# Target: DNA repair nuclease/redox regulator APEX1 (Homo sapiens) (UniProt P27695)
# Experiment: qHTS Assay for Inhibitors of the Human Apurinic/apyrimidinic Endonuclease 1 (APE1); further: nearly all actives have a fitted effect of over 55% in size;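 on activity change, negative = inhibition: plate controls were vehicle for no effect and reference inhibitor for full effect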
# Details: recombinant APE1, TAMRA/BHQ-2 abasic DNA cleavage fluorescence; activity change, negative = inhibition: at 65.8 µM (top of the series)
# Summary of the method: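 Quantitative HTS: incision of a TAMRA/BHQ-2 double-stranded substrate bearing a tetrahydrofuran abasic site by 0.75 nM APE1 raises fluorescence. Substrate 50 nM final, added after 15 min compound preincubation at room temperature; progress as third-minus-first kinetic read difference.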
# Potency means the concentration at half of the fitted maximal effect.
Structure (SMILES),"activity change, negative = inhibition",Potency
CC(=O)c1ccc(OCCOc2ccc([N+](=O)[O-])cc2)cc1,inactive: -10.8%,
CCOC(=O)c1nn(-c2ccccc2C)c2nc(Nc3ccccc3)cc(=O)n12,,"inconclusive: 28.2 µM [inhibitor, partial curve, poor fit]"
CCn1c(CSc2nnc3ccccn23)nc2cc(C(=O)O)ccc21,inactive: -6.78%,
COC(=O)c1cn(NC(=O)c2cnccn2)c(=O)c2ccccc12,inactive: -6.41%,
Cc1ccc(S(=O)(=O)NC(=O)c2ccc(-c3ccc(C)c4ccccc34)o2)cc1,,"inconclusive: 3.98 µM [inhibitor, single point]"
O=c1cc(-c2ccccc2)nc2nc(-c3ccco3)[nH]n12,inactive: -6.46%,
Cc1oc(C(=O)O)cc1COc1ccc2c3c(c(=O)oc2c1)CCC3,inactive: -3.63%,
CC1NC(C(=O)O)Cc2c1[nH]c1ccccc21 (stereo unspecified),,"inconclusive: 39.8 µM [inhibitor, partial curve, poor fit]"
O=C1CC(SC(=NCc2ccc3c(c2)OCO3)Nc2ccccc2)C(=O)N1 (stereo unspecified),,"inconclusive: 22.4 µM [inhibitor, single point]"
O=C(COc1ccccc1F)N1CCN(S(=O)(=O)/C=C/c2ccccc2)CC1,,"inconclusive: 22.4 µM [inhibitor, single point]"
Cc1cc(NC(=O)C2CC=CCC2C(=O)O)no1 (stereo unspecified),inactive: -9.57%,
COc1ccc(SCC(c2ccccc2)N2CCN(CC(C)C)CCC2=O)cc1 (stereo unspecified),inactive: 4.97%,
CCOC(=O)Nc1c2ccccc2nc2ccccc12,,"inconclusive: 3.98 µM [inhibitor, single point]"
Cc1oc(-c2ccc(F)cc2)cc1-c1nn2c(-c3ccoc3C)nnc2s1,,"inconclusive: 14.1 µM [inhibitor, partial curve]"
CC(C(=O)NC1CC(C)(C)NC(C)(C)C1)c1ccc([N+](=O)[O-])cc1 (stereo unspecified),,"inconclusive: 0.355 µM [inhibitor, full curve]"
O=C(c1coc(=O)c(Br)c1)N1CCCc2ccccc21,,"inconclusive: 35.5 µM [inhibitor, single point]"
CCn1cc(C(=O)O)c(=O)c2cc(F)c(N3CCN(C(=S)NC(=O)c4cc(OC)cc(OC)c4)CC3)cc21,inactive: -11.7%,
CCN=C1SC(CC(=O)NCc2ccccc2)C(=O)N1CC (stereo unspecified),,"inconclusive: 50.1 µM [inhibitor, partial curve, poor fit]"
Cc1cccc(-n2c(Cc3ccccc3)n[nH]c2=S)c1,inactive: -3.29%,
CC(C)(C)c1cc(C(=O)O)n[nH]1,,"inconclusive: 0.891 µM [inhibitor, full curve, poor fit]"
COc1cc(Cl)c(C)cc1NC(=O)CN(C)Cc1cccc(OC)c1OC,,"inconclusive: 5.62 µM [inhibitor, full curve, poor fit]"

# 3 compounds out of the list, arranged by molecular weight, ascending:
Structure (SMILES),"activity change, negative = inhibition",Potency
Cc1cc(NC(=O)C2CC=CCC2C(=O)O)no1 (stereo unspecified),inactive: -9.57%,
Cc1cccc(-n2c(Cc3ccccc3)n[nH]c2=S)c1,inactive: -3.29%,
O=C1CC(SC(=NCc2ccc3c(c2)OCO3)Nc2ccccc2)C(=O)N1 (stereo unspecified),,"inconclusive: 22.4 µM [inhibitor, single point]"
